# These are yes or no findings as the source states them, for the method shown. In cells and extracts the contact can be indirect. These calls come from enrichment with a bait or labelling near it, and not all partners need be listed.
# Chains of the proteins cited; added tags and fusions are not shown.
# UniProt P17844: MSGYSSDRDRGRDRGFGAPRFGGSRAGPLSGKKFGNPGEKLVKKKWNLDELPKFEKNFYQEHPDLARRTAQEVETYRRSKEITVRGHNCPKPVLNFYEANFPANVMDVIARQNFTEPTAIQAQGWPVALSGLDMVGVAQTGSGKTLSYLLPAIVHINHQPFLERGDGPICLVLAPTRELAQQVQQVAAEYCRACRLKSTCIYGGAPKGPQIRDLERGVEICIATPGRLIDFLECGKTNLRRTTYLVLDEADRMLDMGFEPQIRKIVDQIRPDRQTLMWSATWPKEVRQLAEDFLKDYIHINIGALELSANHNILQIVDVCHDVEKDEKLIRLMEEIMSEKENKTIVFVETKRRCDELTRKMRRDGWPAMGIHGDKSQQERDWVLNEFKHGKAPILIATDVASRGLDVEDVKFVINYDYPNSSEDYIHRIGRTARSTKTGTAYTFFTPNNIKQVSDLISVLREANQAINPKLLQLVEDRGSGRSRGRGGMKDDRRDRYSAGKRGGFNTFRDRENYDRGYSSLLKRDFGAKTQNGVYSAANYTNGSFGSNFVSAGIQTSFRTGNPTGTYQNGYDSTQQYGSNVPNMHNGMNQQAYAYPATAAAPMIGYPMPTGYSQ
# UniProt Q09028: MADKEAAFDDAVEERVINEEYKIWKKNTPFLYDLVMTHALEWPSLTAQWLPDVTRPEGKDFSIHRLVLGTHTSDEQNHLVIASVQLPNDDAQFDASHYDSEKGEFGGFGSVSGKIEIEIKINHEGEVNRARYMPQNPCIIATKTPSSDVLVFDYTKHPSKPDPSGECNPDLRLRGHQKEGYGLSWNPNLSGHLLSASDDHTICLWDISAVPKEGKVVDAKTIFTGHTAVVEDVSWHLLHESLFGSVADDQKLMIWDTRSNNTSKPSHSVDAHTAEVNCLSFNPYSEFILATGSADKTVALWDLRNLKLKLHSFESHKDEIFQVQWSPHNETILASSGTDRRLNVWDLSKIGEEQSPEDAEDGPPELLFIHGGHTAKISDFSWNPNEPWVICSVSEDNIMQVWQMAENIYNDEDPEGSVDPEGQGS
# UniProt Q16666: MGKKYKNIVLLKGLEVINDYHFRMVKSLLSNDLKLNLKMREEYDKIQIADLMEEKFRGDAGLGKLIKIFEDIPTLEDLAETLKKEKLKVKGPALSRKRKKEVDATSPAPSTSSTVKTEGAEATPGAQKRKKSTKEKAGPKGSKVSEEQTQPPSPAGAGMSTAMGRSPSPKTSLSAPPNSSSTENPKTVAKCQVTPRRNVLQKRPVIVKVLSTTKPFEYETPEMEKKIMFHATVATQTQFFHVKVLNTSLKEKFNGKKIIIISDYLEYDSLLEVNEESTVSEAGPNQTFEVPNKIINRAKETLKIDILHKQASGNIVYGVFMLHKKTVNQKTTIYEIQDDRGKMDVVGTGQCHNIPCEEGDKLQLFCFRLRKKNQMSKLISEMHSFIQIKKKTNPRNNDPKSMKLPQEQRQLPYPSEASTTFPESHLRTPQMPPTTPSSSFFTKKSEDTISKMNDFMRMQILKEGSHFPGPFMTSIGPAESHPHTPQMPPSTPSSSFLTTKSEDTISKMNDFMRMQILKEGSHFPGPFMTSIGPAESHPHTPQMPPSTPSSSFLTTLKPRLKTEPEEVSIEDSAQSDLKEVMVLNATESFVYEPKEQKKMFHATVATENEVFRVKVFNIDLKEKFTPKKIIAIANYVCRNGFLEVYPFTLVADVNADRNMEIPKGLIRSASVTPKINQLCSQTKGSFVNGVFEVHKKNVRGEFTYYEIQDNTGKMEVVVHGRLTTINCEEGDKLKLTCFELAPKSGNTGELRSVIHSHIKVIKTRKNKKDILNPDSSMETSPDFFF
# Molecular target: FLAG-DDX5 (RNA helicase DEAD box protein 5, wild type) (UniProt P17844)
# Test: affinity purification with mass spectrometry; native whole-cell extract of Dox-induced (1.0 µg/mL, 48 h) FLAG-DDX5 HepaRG cells immunoprecipitated with FLAG Ab or IgG; short SDS-PAGE, in-gel trypsin digestion, label-free quantitative LC-MS/MS
row,binding,Substance
1,binds,"RBBP4, auxiliary PRC2 subunit (from UniProt Q09028 1-425)"
2,binds,interferon-inducible protein 16 (IFI16) (from UniProt Q16666 1-785)

# Source: paper PMC11648352
